Results reported in paper PMC12670160, “A drug-repurposing screen of FDA- and EMA-approved drugs identifies two NF-κB inhibitors active against eumycetoma” (Journal of Antimicrobial Chemotherapy, 2025).
Where a name gives a salt, the structure may show the parent alone. The whole screen tested about 5,300 compounds, of which about 130 (2.5%) showed an effect of 50% or more. The list shows a part of the results.

Test system: M. mycetomatis strain mm55
Conditions: primary screen, metabolic activity vs growth control; 96 h, 2 µM; inhibitor

SMILES | % viability
CN1CCc2c(c3ccccc3n2Cc2ccc(C(=O)NO)cc2)C1 [ONC0005225, tubastatin a hydrochloride] | 130.4%
C=C(C)[C@@H]1CC[C@]2(C(=O)O)CC[C@]3(C)[C@H](CC[C@@H]4[C@@]5(C)CC[C@H](OC(=O)CC(C)(C)C(=O)O)C(C)(C)[C@@H]5CC[C@]43C)[C@@H]12 [ONC0002104, bevirimat] | 64.85%
Cc1cnc(-c2cc(N3CCN(C(=O)CCS(C)(=O)=O)CC3)ncc2Cl)c(C)c1 [ONC0005099, pf5274857] | 101%
Cc1c(CN2CCN(C(=O)[C@H](C)O)CC2)sc2c(N3CCOCC3)nc(-c3cnc(N)nc3)nc12 [ONC0005040, apitolisib gdc0980 rg7422] | 91.34%
CN1C(=O)CC[C@H]1c1cccnc1 [ONC0004108, cotinine] | 114.3%
CCn1c(=O)[nH]c2cc(Cl)c(Cl)cc21 [ONC0002537, dcebio] | 73.52%
O=C(O)C(=O)Cc1c[nH]c2ccccc12 [ONC0005628, indole3pyrubate] | 60.98%
CC(COc1ccccc1)NC(C)[C@H](O)c1ccc(O)cc1 (some centres unmarked) [ONC0000598, isoxsuprine hydrochloride] | 84.27%
CC[C@H]1CN2CCC1C[C@@H]2[C@@H](O)c1ccnc2ccc(OC)cc12 (some centres unmarked) [ONC0003391, hydroquinidine] | 61.36%
COc1cc2nccc(Oc3ccc(NC(=O)NC4CC4)c(Cl)c3)c2cc1C(N)=O [ONC0004715, e7080 lenvatinib] | 108%
Nc1ccn([C@@H]2O[C@@](CO)(CCl)[C@@H](O)[C@H]2F)c(=O)n1 [ONC0000939, als8112] | 44.91%
CCC(C)(Oc1ccc(C2(c3ccc(OC(C)(CC)C(=O)O)cc3)CCCCC2)cc1)C(=O)O (centres unmarked) [ONC0005256, clinofibrate] | 121.9%
C[C@H](Cc1ccc(OCC(=O)O)cc1)NC[C@H](O)c1cccc(Cl)c1 [ONC0002502, brl37344] | 65.77%
COc1ccccc1Oc1c(NS(=O)(=O)c2ccc(C)cn2)nc(-c2ccncc2)nc1OC [ONC0000736, avosentan] | 87.73%
CN(C)/C=N/c1c(I)cc(I)c(CCC(=O)O)c1I [ONC0003787, iopodicacid] | 59.4%
O=C(Nc1cc(C(F)(F)F)cc(C(F)(F)F)c1)Nc1c(Br)cc(Br)cc1-c1nn[nH]n1 [ONC0001703, ns5806] | 58.83%
Nc1ncnc2c1ncn2[C@H]1O[C@@H](C(=O)N2CCN(CC(=O)Nc3cccc4c3CNC4=O)CC2)[C@H](O)[C@@H]1O [ONC0001619, eb47] | 55.83%
CC(C)C(=O)SCCCCC[C@H](NC(=O)OC(C)(C)C)C(=O)NC12CC3CC(CC(C3)C1)C2 [ONC0002528, tcshdac620b] | 72.9%
c1ccc2c(CC3=NCCN3)cccc2c1 [ONC0000371, naphazoline hydrochloride] | 72.12%
CC(=O)OCC(=O)[C@@]12OC(C)(C)O[C@@H]1C[C@H]1[C@@H]3C[C@H](F)C4=CC(=O)C=C[C@]4(C)[C@@]3(F)[C@@H](O)C[C@@]12C [ONC0005095, fluocinonide vanos] | 163.8%

Filtered by structure, the compounds so far containing an NH in an aromatic ring (3)
SMILES | % viability
CCn1c(=O)[nH]c2cc(Cl)c(Cl)cc21 [ONC0002537, dcebio] | 73.52%
O=C(O)C(=O)Cc1c[nH]c2ccccc12 [ONC0005628, indole3pyrubate] | 60.98%
O=C(Nc1cc(C(F)(F)F)cc(C(F)(F)F)c1)Nc1c(Br)cc(Br)cc1-c1nn[nH]n1 [ONC0001703, ns5806] | 58.83%

Two records drawn at random from the list so far:
SMILES | % viability
CN1CCc2c(c3ccccc3n2Cc2ccc(C(=O)NO)cc2)C1 [ONC0005225, tubastatin a hydrochloride] | 130.4%
C=C(C)[C@@H]1CC[C@]2(C(=O)O)CC[C@]3(C)[C@H](CC[C@@H]4[C@@]5(C)CC[C@H](OC(=O)CC(C)(C)C(=O)O)C(C)(C)[C@@H]5CC[C@]43C)[C@@H]12 [ONC0002104, bevirimat] | 64.85%

Further entries

SMILES | % viability
O=C(CCCN1CCC(n2c(O)nc3ccccc32)CC1)c1ccc(F)cc1 [ONC0002014, benperidol] | 79.93%
CC(C)(O)c1coc(S(=O)(=O)NC(=O)Nc2c3c(cc4c2CCC4)CCC3)c1 [ONC0000990, mcc950] | 60.85%
CC(=O)c1cc2c(o1)C(=O)c1ccccc1C2=O [ONC0001089, napabucasin] | 62.94%
S=C(S)N1CCCC1 [ONC0000813, pyrrolidinedithiocarbamate] | 63.17%
O=C1NS(=O)(=O)c2ccccc21 [ONC0003770, saccharin] | 131.5%
NS(=O)(=O)c1cc2c(cc1Cl)NC(C1CC3C=CC1C3)NS2(=O)=O (centres unmarked) [ONC0002851, cyclothiazide] | 88.9%
CN(c1ccccc1CNc1nc(Nc2ccc3c(c2)CC(=O)N3)ncc1C(F)(F)F)S(C)(=O)=O [ONC0002481, pf431396] | 92.47%
CC(=O)CC(c1ccccc1)c1c(O)c2ccccc2oc1=O (centres unmarked) [ONC0003214, warfarin] | 83.77%
CC(C)COc1ccc(CNC(=O)N(Cc2ccc(F)cc2)C2CCN(C)CC2)cc1 [ONC0002034, pimavanserin] | 65.08%
O=c1oc2c(O)c(O)cc3c(=O)oc4c(O)c(O)cc1c4c23 [ONC0004174, ellagic acid] | 100.6%
COc1ccc(/C=C/C(=O)/C=C(O)/C=C/c2ccc(OC)c(OC)c2)cc1OC [ONC0000397, dimethylcurcumin ascj9] | 61.62%
Cc1cn([C@H]2O[C@@H](CO)[C@H](O)[C@@H]2F)c(=O)[nH]c1=O [ONC0004549, clevudine levovir] | 61.35%
CCOc1ccc(-n2c([C@@H](C)N(Cc3cccnc3)C(=O)Cc3ccc(OC(F)(F)F)cc3)nc3ncccc3c2=O)cc1 [ONC0000982, amg 487] | 79.82%
CNC(=O)c1ccccc1Nc1cc(Nc2ccc(N3CCOCC3)cc2OC)ncc1C(F)(F)F [ONC0004282, pnd1186] | 90.77%
Oc1cc(O)c2c(c1)O[C@H](c1ccc(O)c(O)c1)[C@H](O)[C@H]2c1c(O)cc(O)c2c1O[C@H](c1ccc(O)c(O)c1)[C@H](O)C2 [ONC0002081, procyanidin b2] | 61.64%
CNC(=O)c1cc(Oc2ccc(NC(=O)Nc3ccc(Cl)c(C(F)(F)F)c3)cc2)ccn1 [ONC0004748, sorafenib tosylate] | 93.97%
COc1cc2nc(C3CC3)nc(N3CCN(c4ccccc4OC)CC3)c2cc1OC [ONC0001378, ml314] | 86.22%
COc1cccc2c1C(=O)c1c(O)c3c(c(O)c1C2=O)C[C@@](O)(C(C)=O)C[C@@H]3O[C@H]1C[C@H](N)[C@H](O)[C@H](C)O1 [ONC0001686, daunorubicin] | 72.25%
Cc1c(N2C(=O)[C@@H]3[C@H](O)CCN3C2=O)ccc(C#N)c1Cl [ONC0002510, bms564929] | 79.85%
COc1cc(C[C@H]2c3cc(OC)c(OC)cc3CCN2C)c(Oc2cc3c(cc2OC)-c2c(OC)c(OC)cc4c2[C@H](C3)N(C)CC4)cc1OC [ONC0002973, thaliblastine] | 64.41%

SMILES | % viability
C=CC(=O)Nc1cc2c(Nc3ccc(F)c(Cl)c3)ncnc2cc1C#CC(C)(C)N1CCN(C)CC1 [ONC0005448, av412 free base] | 123.5%
Cc1cc(Cn2nnc3c(-c4ccco4)nc(N)nc32)ccc1N [ONC0003519, vipadenant] | 66.76%
O=C(Nc1cc(-c2ccccc2)nn1-c1ccccc1F)c1ccc([N+](=O)[O-])cc1 [ONC0001668, vu1545] | 83.75%
CC/C(=C(\c1ccc(O)cc1)c1ccc(OCCNC)cc1)c1ccccc1 [ONC0004522, endoxifen hcl] | 48.7%
C#CCN(C)C(C)Cc1ccccc1 (centres unmarked) [ONC0004026, selegiline hydrochloride] | 67.5%
Cc1ccc(S(=O)(=O)Cc2nc(-c3ccc(C(=O)NCc4cccnc4)cc3)oc2C)cc1 [ONC0005103, stf118804] | 70%
c1ccc2c(c1)Sc1ccccc1N2CC1CN2CCC1CC2 (centres unmarked) [ONC0003208, levomequitazine] | 71.99%
CC(=C(CCOC(=O)C(C)C)SSC(CCOC(=O)C(C)C)=C(C)N(C=O)Cc1cnc(C)nc1N)N(C=O)Cc1cnc(C)nc1N (stereo in doubt) [ONC0003382, sulbutiamine] | 88.3%
C=C1CC[C@@H]2[C@](C)(CO)[C@H](O)CC[C@@]2(C)[C@@H]1C/C=C1/C(=O)OC[C@H]1O [ONC0005241, andrographolide] | 99.59%
Cc1cn([C@H]2C=C[C@@H](CO)O2)c(=O)[nH]c1=O [ONC0004210, stavudine] | 101%
CCc1cccc(N(C)C(N)=Nc2cccc3ccccc23)c1 [ONC0004713, cerestat] | 111.4%
CC(=O)NS(=O)(=O)c1ccc(N)cc1 [ONC0000547, sulfacetamide] | 84.05%
O=C(O)[C@H]1CN(C/C=C/P(=O)(O)O)CCN1 [ONC0002611, midafotel] | 84.16%
CN1C(CCl)Nc2cc(Cl)c(S(N)(=O)=O)cc2S1(=O)=O (centres unmarked) [ONC0004809, methyclothiazide] | 66.17%
C=CC1=C(C(=O)O)N2C(=O)[C@@H](NC(=O)/C(=N\O)c3csc(N)n3)[C@H]2SC1 [ONC0004234, cefdinir] | 60.91%
COc1ccc(NS(=O)(=O)c2ccc(I)cc2)cc1N1CCN(C)CC1 [ONC0001661, sb258585] | 76.38%
O=C1NC(O)CCN1[C@@H]1O[C@H](CO)[C@@H](O)[C@H]1O (some centres unmarked) [ONC0002970, tetrahydrouridine] | 56.51%
OCc1ccccc1O[C@@H]1O[C@H](CO)[C@@H](O)[C@H](O)[C@H]1O [ONC0004099, salicin] | 138.9%
Cc1cccc(CC(=O)N2CCc3c2ccc(-c2cn(C)c4ncnc(N)c24)c3F)n1 [ONC0005148, gsk2656157] | 97.56%
